# Experimental data from PMC8980952.
# By UniProt entry, the sequences of proteins in these tests, tags left out.
# UniProt P27695: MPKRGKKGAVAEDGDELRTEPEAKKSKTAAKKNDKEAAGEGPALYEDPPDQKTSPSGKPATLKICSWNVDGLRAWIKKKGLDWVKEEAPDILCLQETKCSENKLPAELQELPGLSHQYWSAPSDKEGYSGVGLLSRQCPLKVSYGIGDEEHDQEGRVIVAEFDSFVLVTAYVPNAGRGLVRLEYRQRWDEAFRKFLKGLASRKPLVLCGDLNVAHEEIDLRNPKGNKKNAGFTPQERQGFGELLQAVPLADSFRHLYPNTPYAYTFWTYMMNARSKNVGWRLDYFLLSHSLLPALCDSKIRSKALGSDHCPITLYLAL
# UniProt P43138: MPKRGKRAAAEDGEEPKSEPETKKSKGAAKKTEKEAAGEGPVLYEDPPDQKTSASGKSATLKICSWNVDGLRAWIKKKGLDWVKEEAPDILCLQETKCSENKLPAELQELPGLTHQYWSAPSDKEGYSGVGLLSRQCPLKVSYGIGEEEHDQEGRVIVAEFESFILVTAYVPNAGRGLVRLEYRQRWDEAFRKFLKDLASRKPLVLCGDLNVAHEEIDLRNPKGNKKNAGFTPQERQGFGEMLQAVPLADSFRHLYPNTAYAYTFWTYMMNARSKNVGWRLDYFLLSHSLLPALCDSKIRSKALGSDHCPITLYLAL
# UniProt P52631: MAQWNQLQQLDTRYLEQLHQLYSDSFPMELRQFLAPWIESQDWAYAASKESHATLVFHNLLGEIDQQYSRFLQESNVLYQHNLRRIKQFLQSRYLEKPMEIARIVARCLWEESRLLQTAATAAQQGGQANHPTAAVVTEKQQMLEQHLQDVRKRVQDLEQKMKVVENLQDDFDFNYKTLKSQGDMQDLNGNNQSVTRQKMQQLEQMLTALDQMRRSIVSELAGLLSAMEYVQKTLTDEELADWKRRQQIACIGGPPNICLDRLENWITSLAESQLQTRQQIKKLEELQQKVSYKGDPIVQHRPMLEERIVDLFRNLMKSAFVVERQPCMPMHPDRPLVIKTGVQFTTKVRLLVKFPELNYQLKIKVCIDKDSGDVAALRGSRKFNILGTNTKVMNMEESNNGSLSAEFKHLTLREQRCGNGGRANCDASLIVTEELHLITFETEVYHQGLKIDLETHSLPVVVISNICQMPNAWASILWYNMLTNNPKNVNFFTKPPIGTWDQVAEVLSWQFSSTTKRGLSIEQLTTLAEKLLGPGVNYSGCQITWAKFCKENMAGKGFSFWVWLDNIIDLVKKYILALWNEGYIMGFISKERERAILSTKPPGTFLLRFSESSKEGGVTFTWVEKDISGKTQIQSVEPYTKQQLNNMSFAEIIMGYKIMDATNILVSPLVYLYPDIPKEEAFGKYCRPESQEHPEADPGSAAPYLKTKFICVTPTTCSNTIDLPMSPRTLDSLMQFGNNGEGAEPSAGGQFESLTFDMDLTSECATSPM
# UniProt P10361: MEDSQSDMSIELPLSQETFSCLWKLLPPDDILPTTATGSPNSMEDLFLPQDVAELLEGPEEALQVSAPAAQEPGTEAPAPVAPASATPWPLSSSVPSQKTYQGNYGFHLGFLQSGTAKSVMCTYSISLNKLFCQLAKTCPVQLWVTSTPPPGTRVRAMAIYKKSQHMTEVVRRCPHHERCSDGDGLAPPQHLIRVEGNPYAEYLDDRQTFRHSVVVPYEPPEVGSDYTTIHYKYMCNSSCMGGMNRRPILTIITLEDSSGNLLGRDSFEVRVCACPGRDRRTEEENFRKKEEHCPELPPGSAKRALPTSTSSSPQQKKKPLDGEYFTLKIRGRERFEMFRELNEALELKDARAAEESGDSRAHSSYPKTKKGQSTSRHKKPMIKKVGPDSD
# Like-named read-outs stand apart in the source and are kept apart here. No constants are given. Whether binding was seen depends on the method and setting. In cells and extracts the contact can be indirect. Some results given as binding are weak or reduced against the parent protein; the word gives no strength. For part of these data: Where a sequence is shown, tags or fusion partners need not be part of it.
# T1: Myc‐tagged human CRP (pEF1α‐myc‐hCRP) (human) (UniProt P02741)
# T1 sequence: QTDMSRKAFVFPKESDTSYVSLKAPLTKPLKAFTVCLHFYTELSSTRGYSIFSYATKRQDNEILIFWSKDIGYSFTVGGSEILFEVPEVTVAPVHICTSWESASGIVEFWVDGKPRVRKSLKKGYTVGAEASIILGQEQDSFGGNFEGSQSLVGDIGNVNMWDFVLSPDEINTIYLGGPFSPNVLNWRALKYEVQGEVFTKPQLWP
# Columns and labels:
# [1] = biological target: human AP‐endonuclease/Redox factor‐1 (APE/Ref‐1), overexpressed from pcDNA3.1 (human) (UniProt P27695); experiment: co-IP; A10 cells transfected with tMOCK, tCRP or tRef-1 for 48 h; total lysates cross-linked and immunoprecipitated by goat anti-Ref-1 antibody; IB with mouse anti-CRP and anti-STAT3 antibodies
# [2] = biological target: T1, Myc‐tagged human CRP (pEF1α‐myc‐hCRP) (human); experiment: co-IP; A10 cells transfected with myc-tMOCK, tMOCK, myc-tCRP, tCRP or tRef-1 for 48 h; total lysates cross-linked and immunoprecipitated by goat anti-Ref-1 or rabbit anti-myc antibodies; IB with anti-CRP, anti-Myc, anti-Ref-1 and anti-p53 antibodies
# [3] = biological target: Ref‐1 in Myc‐tagged CRP‐overexpressed A10 cells (rat (endogenous in A10)) (UniProt P43138); experiment: as above
# [4] = biological target: Ref‐1 in Myc‐tagged CRP‐overexpressed A10 cells (rat (endogenous in A10)) (UniProt P43138); experiment: as above; remark: listed apart in the source
# [5] = biological target: Ref‐1 (endogenous in human aortic VSMCs) (human (endogenous in hVSMCs)) (UniProt P27695); experiment: co-IP; total cell extracts of 8 Gy IR-exposed hVSMCs immunoprecipitated by IgG or goat anti-Ref-1 antibodies; IB with mouse anti-CRP, anti-Ref-1 and anti-STAT3 antibodies
molecule,measurement,setting,value
STAT3 (endogenous in A10 rat VSMCs) (from UniProt P52631 1-770),binding,[1],binds
"p53 (endogenous in A10 rat VSMCs, induced by tCRP) (from UniProt P10361 1-391)",binding,[2],binds
same,binding,[3],binds
"human C‐reactive protein (CRP), overexpressed from pcDNA3.1 (protein, UniProt P02741-1 19-224) QTDMSRKAFVFPKESDTSYVSLKAPLTKPLKAFTVCLHFYTELSSTRGYSIFSYATKRQDNEILIFWSKDIGYSFTVGGSEILFEVPEVTVAPVHICTSWESASGIVEFWVDGKPRVRKSLKKGYTVGAEASIILGQEQDSFGGNFEGSQSLVGDIGNVNMWDFVLSPDEINTIYLGGPFSPNVLNWRALKYEVQGEVFTKPQLWP",binding,[1],binds
"Myc‐tagged human CRP (pEF1α‐myc‐hCRP) (protein, UniProt P02741-1 19-224) QTDMSRKAFVFPKESDTSYVSLKAPLTKPLKAFTVCLHFYTELSSTRGYSIFSYATKRQDNEILIFWSKDIGYSFTVGGSEILFEVPEVTVAPVHICTSWESASGIVEFWVDGKPRVRKSLKKGYTVGAEASIILGQEQDSFGGNFEGSQSLVGDIGNVNMWDFVLSPDEINTIYLGGPFSPNVLNWRALKYEVQGEVFTKPQLWP",binding,[4],binds
"IR‐induced CRP (endogenous in human aortic VSMCs) (protein, UniProt P02741 19-224) QTDMSRKAFVFPKESDTSYVSLKAPLTKPLKAFTVCLHFYTELSSTRGYSIFSYATKRQDNEILIFWSKDIGYSFTVGGSEILFEVPEVTVAPVHICTSWESASGIVEFWVDGKPRVRKSLKKGYTVGAEASIILGQEQDSFGGNFEGSQSLVGDIGNVNMWDFVLSPDEINTIYLGGPFSPNVLNWRALKYEVQGEVFTKPQLWP",binding,[5],binds
